Reference: PubChem BioAssay AID1347076 (National Center for Advancing Translational Sciences (NCATS), 2019)
Screen size: about 400,000 compounds; about 13,000 (3.2%) were called active. The inconclusive results got no clear call from the source; some entries with a clear call stand among them for comparison. Calls follow the shape of the dose curve; as a rule, active = well fitted cell-killing curve with a large enough effect; inconclusive = small, poorly fitted or top-dose-only effect, or effect the other way; inactive = flat fitted curve, though single readings scatter. Potencies of inconclusive entries are doubtful fits and often do not repeat.
% is scaled to controls: 0 for no effect and ±100 for the full control effect; potency is read from the fitted curve at half-maximal effect.

Test: qHTS assay for MDR1-selective chemotherapeutics: Primary screen using the drug-selected MDR subline cells KB-V1; also: nearly all actives have a fitted effect of over 60% in size
Settings: KB-V1 MDR cells viability, CellTiter-Glo, 72 h; activity change, negative = cytotoxicity: at 46.1 µM (top of the series)
Procedure, shortened: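 Cytotoxicity via CellTiter-Glo luminescence after 72 h compound exposure at 37 degrees C. Cells: drug-selected KB-V1 line, DMEM phenol-red free plus 10% FBS. Compounds tested at multiple concentrations; normalized data fitted to concentration-effect curves.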
In the case of `Cc1ccc(C(C(=O)NC2CCCCC2)N(C(=O)Cc2c[nH]c3ccccc23)c2ccccc2)o1` (configuration not stated), the Potency was active: 4.11 µM.
With `Cc1ccc2nc(SC(C)C(=O)NC3CCCc4ccccc43)[nH]c2c1` (configuration not stated) the Potency was active: 20.6 µM.
In the case of `Cc1ccc(C)n1-n1cnc2sc3c(c2c1=O)CCC3`, the “activity change, negative = cytotoxicity” value was inactive: -3.98%.
In the case of `CCN1C2=C(C(=O)CCC2)C(c2ccc(O)c(Br)c2)C2=C1CCCC2=O`, the “activity change, negative = cytotoxicity” value was inactive: -3.12%.
With `CCOC(=O)NCc1ccc(S(=O)(=O)Nc2ccccc2C)cc1` the Potency was active: 23.1 µM.
In the case of `O=c1[nH]c(O)c(/C=C2\C=Nc3ccc(Br)cc32)[nH]1`, the “activity change, negative = cytotoxicity” value was inactive: 0%.
In the case of `COc1ccc(C(=O)OCC(=O)c2ccco2)cc1[N+](=O)[O-]`, the Potency was inconclusive: 0.13 µM [rising, full curve].
In the case of `O=c1c(N2CCc3ccccc3C2)csc2ccccc12`, the “activity change, negative = cytotoxicity” value was inactive: 0.44%.
With `COc1cc(OC)cc(-c2nnc(SCc3ccc(C(=O)O)cc3)o2)c1` the Potency was inconclusive: 13 µM [rising, partial curve].
For `O=C(C1CCCN(S(=O)(=O)c2ccc(Br)s2)C1)N1CCN(c2ccccc2)CC1` (configuration not stated), the Potency was “inactive”.
With `COc1cc(NC(=O)c2cnc(N)s2)cc(C(=O)Nc2cccc(C(F)(F)F)c2)c1` the Potency was “inactive”.
With `CC(=O)N1CCN(S(=O)(=O)c2cccc(C(=O)NCCC3=CCCCC3)c2)CC1` the “activity change, negative = cytotoxicity” value was inactive: -8.57%.
With `C/C(N)=C(/C#N)C(=O)COC(=O)[C@@H](NC(=O)c1ccccc1Cl)C(C)C` the “activity change, negative = cytotoxicity” value was inactive: 2.53%.
For `COc1ccc(Cn2nnnc2C(C(C)C)N2CCN(c3ccccc3OC)CC2)cc1` (configuration not stated), the Potency was inconclusive: 16.4 µM [cytotoxic, partial curve].
With `Cn1nc(C(=O)OCC(=O)Nc2sccc2C(N)=O)c2ccccc2c1=O` the “activity change, negative = cytotoxicity” value was inactive: 8.19%.
In the case of `CCOc1ccc(S(=O)(=O)N2CCC(C(=O)N3CCCCCC3)CC2)cc1C`, the Potency was inconclusive: 16.4 µM [cytotoxic, single point].
In the case of `N#Cc1ccccc1NC(=O)C1SC(=Nc2ccccc2)C(C(=O)Nc2ccc(Cl)cc2)=C1N` (configuration not stated), the Potency was active: 6.51 µM.
In the case of `Fc1cc(F)nc(NCc2ccccc2)n1`, the Potency was inconclusive: 23.1 µM [rising, partial curve].
In the case of `COc1cc(NC(=O)c2ccccc2)c(OC)cc1NC(=O)CN1C(=O)NC2(CCCCC2)C1=O`, the Potency was inconclusive: 29.1 µM [rising, single point].
In the case of `Cc1nc2ccc(C(=O)N3CCN(c4ccccn4)CC3)cc2s1`, the Potency was inconclusive: 25.9 µM [cytotoxic, single point].
In the case of `CC(C)(C)C(=O)Cn1c(=N)n(Cc2ccccc2)c2ccccc21`, the Potency was inconclusive: 29.1 µM [cytotoxic, single point].
In the case of `COc1ccc(N(CC(=O)Nc2ccc3c(c2)OCO3)S(=O)(=O)c2ccccc2)c(OC)c1`, the Potency was inconclusive: 18.4 µM [cytotoxic, partial curve, poor fit].
With `COc1ccc(NC(=O)c2ccc3c(=O)n4nc(Nc5cccc(Cl)c5C)sc4nc3c2)cc1` the Potency was inconclusive: 16.4 µM [rising, single point].
In the case of `Cc1onc(-c2ccccc2Cl)c1C(=O)N1CCc2ccccc2C1`, the Potency was inconclusive: 23.1 µM [cytotoxic, partial curve].
For `CC1CN(C(=O)CSc2nc(-c3ccc(F)cc3)cs2)CC(C)O1` (configuration not stated), the “activity change, negative = cytotoxicity” value was inactive: -9.66%.
For `COc1ccc(OC)c(NC(=O)NNC(=O)c2cc3occc3[nH]2)c1`, the Potency was inconclusive: 25.9 µM [cytotoxic, single point].
With `CCn1c(Cc2ccccc2)nnc1SCC(=O)Nc1ccccc1O` the “activity change, negative = cytotoxicity” value was inactive: -2.64%.
For `CCOC(=O)C1CCN(C(=O)c2ccccc2NC(=O)c2ccc(Br)cc2)CC1`, the Potency was inconclusive: 3.26 µM [cytotoxic, partial curve, poor fit].
For `Nc1c(N(CCO)C(=O)COc2ccc(Cl)cc2)c(=O)[nH]c(=O)n1Cc1ccccc1`, the “activity change, negative = cytotoxicity” value was inactive: -11%.
With `CC(C)C(NC(=O)OCc1ccccc1)C(=O)NC1CCCCC1` (configuration not stated) the activity change, negative = cytotoxicity was inconclusive: -3.07%.
In the case of `Cc1ccc(C(=O)Nc2c(C(=O)NC(C)(C)C)oc3ccccc23)cc1`, the Potency was inconclusive: 18.4 µM [rising, single point].
With `CSC(=N/N=C(\N)c1cnccn1)SC` the Potency was inconclusive: 7.31 µM [rising, partial curve, poor fit].
With `COCCNC(=O)COc1ccccc1Cl` the Potency was inconclusive: 23.1 µM [rising, single point].
With `O=S(=O)(c1ccc(F)cc1)N1CCN(c2nc(-c3ccccc3)nc3ccccc23)CC1` the “activity change, negative = cytotoxicity” value was inactive: -1.81%.
For `O=C1OC(c2cccc([N+](=O)[O-])c2)C2(CCCC2)C(=O)C12CCCCC2` (configuration not stated), the Potency was inconclusive: 14.6 µM [cytotoxic, partial curve].
For `CC(CN1C(C)CCCC1C)OC(=O)c1ccccc1F` (configuration not stated), the Potency was inconclusive: 8.2 µM [rising, partial curve, poor fit].
For `COC(=O)C1=C(C(=O)OC)[C@@H]2Nc3ccccc3[C@@]23C[C@@H](C(=O)OC)N(C(=O)C2CCC2)C3=N1`, the Potency was inconclusive: 29.1 µM [rising, single point].
With `CC1CN(C(=O)COC(=O)c2ccc(Cl)nc2)CC(C)O1` (configuration not stated) the “activity change, negative = cytotoxicity” value was inactive: 0.27%.
In the case of `S=c1[nH]nc(C2CC2)n1Cc1ccco1`, the “activity change, negative = cytotoxicity” value was inactive: -2.79%.
With `Cc1ccc(-n2nc(C)c3nc(CCC(=O)Nc4cccc(C)c4C)c(=O)n(C)c32)cc1` the “activity change, negative = cytotoxicity” value was inactive: 2.72%.
With `C/C(=N\Nc1ccc(Cl)cc1)c1ccccn1` the Potency was inconclusive: 18.4 µM [cytotoxic, single point].
For `CN(C(=O)COC(=O)c1nc(Cl)c(Cl)c(Cl)c1Cl)C1CCS(=O)(=O)C1` (configuration not stated), the Potency was inconclusive: 25.9 µM [cytotoxic, single point].
In the case of `CCOc1nc2c(c(=O)n(C)c(=O)n2C)n1Cc1ccccc1Cl`, the Potency was active: 4.11 µM.
With `Cc1c(C(=O)Nc2c(C)n(C)n(-c3ccccc3)c2=O)oc2c(Cl)cccc12` the Potency was inconclusive: 23.1 µM [cytotoxic, single point].
For `CCN1CCN(Cc2ccc(NC(=O)c3cc(NC(=O)c4nccnc4N)cc(OC)c3)cc2C(F)(F)F)CC1`, the “activity change, negative = cytotoxicity” value was inactive: 0%.
In the case of `CCCCCCCCN1[C@@H](CC(=O)OC)c2cc(C(F)(F)F)ccc2S1(=O)=O`, the Potency was inconclusive: 18.4 µM [cytotoxic, partial curve, poor fit].
With `COc1cc(OC)nc(C(NC(=O)C2CCN(Cc3ccc(N(C)C)cc3)CC2)c2ccc(F)cc2)n1` (configuration not stated) the “activity change, negative = cytotoxicity” value was inactive: -1.44%.
